Data as given in publication PMC5792031.
No constants are given. Whether binding was seen depends on the method and setting. In cells and extracts the contact can be indirect. Some entries that bind do so weakly or less than the wild type. For some assays here: Tags and fused reporters may be left off the sequences shown.

Amino acid sequences for entries named in this document (tags omitted).
UniProt O00629: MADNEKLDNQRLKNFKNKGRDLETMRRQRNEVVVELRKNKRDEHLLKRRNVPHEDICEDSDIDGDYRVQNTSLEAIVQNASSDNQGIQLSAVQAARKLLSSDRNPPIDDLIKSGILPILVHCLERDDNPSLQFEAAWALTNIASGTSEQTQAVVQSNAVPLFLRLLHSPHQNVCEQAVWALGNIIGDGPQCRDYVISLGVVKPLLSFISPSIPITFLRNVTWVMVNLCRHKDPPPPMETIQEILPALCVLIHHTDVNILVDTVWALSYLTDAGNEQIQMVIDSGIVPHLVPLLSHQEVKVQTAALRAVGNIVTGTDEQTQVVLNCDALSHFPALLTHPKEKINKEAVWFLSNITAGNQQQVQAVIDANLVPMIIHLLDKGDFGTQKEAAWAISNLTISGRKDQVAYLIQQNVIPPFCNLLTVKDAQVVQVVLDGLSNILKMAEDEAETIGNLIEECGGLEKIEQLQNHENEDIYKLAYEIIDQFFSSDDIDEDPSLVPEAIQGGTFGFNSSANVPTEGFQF
UniProt P52294: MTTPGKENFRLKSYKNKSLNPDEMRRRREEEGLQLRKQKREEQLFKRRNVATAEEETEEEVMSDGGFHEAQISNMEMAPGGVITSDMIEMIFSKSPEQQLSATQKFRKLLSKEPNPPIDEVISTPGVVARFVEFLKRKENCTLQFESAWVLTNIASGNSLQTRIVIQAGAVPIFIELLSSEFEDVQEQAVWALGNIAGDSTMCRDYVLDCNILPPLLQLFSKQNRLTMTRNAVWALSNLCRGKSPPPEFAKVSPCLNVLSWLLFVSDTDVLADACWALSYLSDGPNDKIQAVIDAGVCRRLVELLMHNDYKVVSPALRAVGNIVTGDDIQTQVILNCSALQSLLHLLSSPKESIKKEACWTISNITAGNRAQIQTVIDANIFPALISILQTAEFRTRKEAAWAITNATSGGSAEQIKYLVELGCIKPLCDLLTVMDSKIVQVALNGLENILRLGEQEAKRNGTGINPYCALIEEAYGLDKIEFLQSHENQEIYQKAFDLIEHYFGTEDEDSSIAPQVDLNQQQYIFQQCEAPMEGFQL
UniProt P15682: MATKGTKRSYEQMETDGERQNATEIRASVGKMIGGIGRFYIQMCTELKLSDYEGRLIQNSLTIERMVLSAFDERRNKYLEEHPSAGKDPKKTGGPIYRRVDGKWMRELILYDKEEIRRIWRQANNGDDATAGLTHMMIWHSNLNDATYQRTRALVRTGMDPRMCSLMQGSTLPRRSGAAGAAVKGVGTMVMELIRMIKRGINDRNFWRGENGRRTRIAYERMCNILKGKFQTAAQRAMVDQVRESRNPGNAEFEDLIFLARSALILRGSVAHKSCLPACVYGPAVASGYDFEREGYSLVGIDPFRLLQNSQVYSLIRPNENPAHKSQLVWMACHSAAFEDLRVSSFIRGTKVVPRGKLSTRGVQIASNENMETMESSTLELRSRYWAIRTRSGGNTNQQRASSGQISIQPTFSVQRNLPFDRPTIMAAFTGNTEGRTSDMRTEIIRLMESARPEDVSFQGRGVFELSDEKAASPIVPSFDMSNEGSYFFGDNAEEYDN

Assays:
[1] = target: T1, Flag-tagged PLSCR1 (human) (UniProt O15162); assay: co-IP
T1 sequence: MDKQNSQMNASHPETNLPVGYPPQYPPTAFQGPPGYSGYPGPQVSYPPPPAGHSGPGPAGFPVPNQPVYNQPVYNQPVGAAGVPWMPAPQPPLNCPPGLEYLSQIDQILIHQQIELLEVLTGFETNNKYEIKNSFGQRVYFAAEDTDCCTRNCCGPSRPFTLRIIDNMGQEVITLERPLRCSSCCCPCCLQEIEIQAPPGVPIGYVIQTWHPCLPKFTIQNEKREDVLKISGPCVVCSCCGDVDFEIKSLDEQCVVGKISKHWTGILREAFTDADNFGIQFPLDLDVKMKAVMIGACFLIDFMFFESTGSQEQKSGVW

[2] = target: Myc-tagged importin α3 (human) (UniProt O00629); assay: co-IP
[3] = target: Myc-tagged importin α5 (human) (UniProt P52294); assay: co-IP
[4] = target: Myc-tagged importin α7 (human) (UniProt O60684); assay: co-IP
[5] = target: T2, PLSCR1, endogenous in A549 cells (human (endogenous in A549)) (UniProt O15162); assay: co-IP
T2 sequence: T1 sequence

[6] = target: T3, GST-PLSCR1 (human) (UniProt O15162); assay: pull-down; only the target purified
T3 sequence: T1 sequence

[7] = target: V5-tagged WSN NP (influenza A virus A/WSN/33 (WSN, H1N1)) (UniProt P15682); assay: co-IP

Molecule: V5-tagged WSN NP (from UniProt P15682 1-498)
- binding [1]: binds
- binding [2]: binds
- binding [3]: binds
- binding [4]: binds

Molecule: WSN NP in virus-infected A549 cells (from UniProt P15682 1-498)
- binding [5]: binds

Molecule: WSN NP (untagged, pCAGGS-WSNNP) (from UniProt P15682 1-498)
- binding [6]: binds

B1: Flag-MOV10 (protein, UniProt Q9HCE1 1-1003)
chain: MPSKFSCRQLREAGQCFESFLVVRGLDMETDRERLRTIYNRDFKISFGTPAPGFSSMLYGMKIANLAYVTKTRVRFFRLDRWADVRFPEKRRMKLGSDISKHHKSLLAKIFYDRAEYLHGKHGVDVEVQGPHEARDGQLLIRLDLNRKEVLTLRLRNGGTQSVTLTHLFPLCRTPQFAFYNEDQELPCPLGPGECYELHVHCKTSFVGYFPATVLWELLGPGESGSEGAGTFYIARFLAAVAHSPLAAQLKPMTPFKRTRITGNPVVTNRIEEGERPDRAKGYDLELSMALGTYYPPPRLRQLLPMLLQGTSIFTAPKEIAEIKAQLETALKWRNYEVKLRLLLHLEELQMEHDIRHYDLESVPMTWDPVDQNPRLLTLEVPGVTESRPSVLRGDHLFALLSSETHQEDPITYKGFVHKVELDRVKLSFSMSLLSRFVDGLTFKVNFTFNRQPLRVQHRALELTGRWLLWPMLFPVAPRDVPLLPSDVKLKLYDRSLESNPEQLQAMRHIVTGTTRPAPYIIFGPPGTGKTVTLVEAIKQVVKHLPKAHILACAPSNSGADLLCQRLRVHLPSSIYRLLAPSRDIRMVPEDIKPCCNWDAKKGEYVFPAKKKLQEYRVLITTLITAGRLVSAQFPIDHFTHIFIDEAGHCMEPESLVAIAGLMEVKETGDPGGQLVLAGDPRQLGPVLRSPLTQKHGLGYSLLERLLTYNSLYKKGPDGYDPQFITKLLRNYRSHPTILDIPNQLYYEGELQACADVVDRERFCRWAGLPRQGFPIIFHGVMGKDEREGNSPSFFNPEEAATVTSYLKLLLAPSSKKGKARLSPRSVGVISPYRKQVEKIRYCITKLDRELRGLDDIKDLKVGSVEEFQGQERSVILISTVRSSQSFVQLDLDFNLGFLKNPKRFNVAVTRAKALLIIVGNPLLLGHDPDWKVFLEFCKENGGYTGCPFPAKLDLQQGQNLLQGLSKLSPSTSGPHSHDYLPQEREGEGGLSLQVEPEWRNEL
- binding [7]: binds

B2: Flag-tagged PLSCR1 (protein, UniProt O15162-1 1-318)
chain: T1 sequence
- binding [7]: binds
